From the RNAGym collection of RNA variant scans (doi:10.1126/science.aae0568)
Variants at the background level are over-represented here.

B1: tRNA (parent)
chain: GUUCCGUUGGCGUAAUGGUAACGCGUCUCCCUCCUAAGGAGAAGACUGCGGGUUCGAGUCCCGUACGGAACG

Variants of: B1
Assay: yeast fitness relative to wild type (ratio to wild type); higher = fitter; tRNA-Arg(CCU), competitive growth, 37 C, YPD
Procedure, shortened: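 Amplicons of the tRNA-Arg(CCU) gene were sequenced, 100-nucleotide paired-end, from the start population and from each end population of a pooled yeast competition. The competition, in six parallel replicates, lasted 24 hours in YPD at 37°C. Fitness relative to wild type was calculated from changes in genotype frequencies. Genotypes had to have ≥ 100 starting reads, and estimates < 0.5 were set to 0.5.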

GUUCCGUUGGCGUAAUGCAAACGCGUCGCCCUCCUAAGGCGAAGACUGCGGGUUCGAGUCCGGUACGGAACG and GUUCCGUUGGCGUAAUGGUAACGCGUCUCCCUCCUAUGGAGAAGACUGCGGGUUAGAGUCCCGUACGGCACG cannot be ordered by yeast fitness: at most 0.5 for the first, at most 0.5 for the second.

First: GUUCCGUUGGCGAAAUGGUAACGCGUCUCCCUCCUAAGGGGUAGACUGCGGGUUCGAGUCCCGUACGCACCG
Second: GUUCCGUUGGCGUAUUGGUAACGCGUCUCCCUCCUAAGGAGAAGACUGCGGGUUUAAGUCCCGUAGGGAACG
The yeast fitness of the first is lower: at most 0.5 for the first, 0.59 for the second.

First: GUUCCGUUGCCGUAAUGGUAACGCGUCUUCUUCCUGAGGAGAAGACUGCGGGUUCGAGUCCCGUACGGAACG
Second: GUUCCGCUGGCGUAAUGGUAACGCGUCUCCCUCCUAAGGAGAAGACUCCGGGUUCGAGUCCUGUACGGAACG
The yeast fitness of the first is lower: at most 0.5 for the first, 0.548 for the second.

First: GUUACGUUGGCGUAAUGGUAACGCGUCUCCCUCCUAAGGAGAAGACUGCGGGUUAGAGUCCCGUAUGGAACG
Second: GUUCCGUUGGCGUAAUGGUAACGCGUCUCCCUCCUACGGAGAAGACUGCGGGUUCGAGUCCCGUACGGAUCG
The yeast fitness of the first is lower: at most 0.5 for the first, 0.752 for the second.

GUUCCGUUGGCGUUAUGGUAAAGCGUCUCCCUCCUAAGGAGAAGACUGCGGGUUCGAGUCCCGUUCGGAACG and GUUCCGUUGGCGUAAUGGUAACGCGUCUCCCUCGUUAGGAGAAGACUGCGGGUUCGAGUCCCGUACGGAACG cannot be ordered by yeast fitness: at most 0.5 for the first, at most 0.5 for the second.

First: GUUCCGUUGGCGUAAUGGUAACGCGUCUCUCUCCUAAGGAGAAGACUGCGGGUUCGAGUCCCGUACGGAACG
Second: GUUCCGUUGGCGUAAUGGUAUCGCGUGUCGCUCCUAAGGAGAAGACUGCGGGUUCGAGUCCCGUACGAAACG
The yeast fitness of the first is higher: 1.01 for the first, at most 0.5 for the second.

GUUACGUAGGCGUAAUGGUAACGUGUCUCCCUCCUAAGGAGAAGACUGCGGGUUCGAGUCCCGUGCGGAACG and GUUCCGUUGGCGUAAUGGUUCCGCGUCUCCCUCCUCAGGAGAAGACUGCGGGUUCGAGUCCCGUACGGACCG cannot be ordered by yeast fitness: at most 0.5 for the first, at most 0.5 for the second.

GUUCCGUUGGCGAAAUGGUAACGCGUCUCCCUCCUAAGGCGAAGACUGCGGGUUCGAGUGCCGUACGGAACG and GUGUCGUUGGCGUAAUGGUAACGCGUCUCUCUGCUAAGGAGAAGACUGCGGGUUUGAGUCCCGUACGUAACG cannot be ordered by yeast fitness: at most 0.5 for the first, at most 0.5 for the second.

GUUCCGUUGGCGUAAUGGUAACGCGACUCCGUCCUAGGGAGAAGACUGCGGGUUCGAGUCCCAUACGGAACG and GUUCCGUUGGUGUAAUGGUAACGCGUCUCCCUGCUGAGGAGAAGACUGAGGGUUCGAGUCCCGUGCGGAACG cannot be ordered by yeast fitness: at most 0.5 for the first, at most 0.5 for the second.

GUUCCGUUGGCGUAAUGGUAACGCGUCUCCCUCCUAAGGAGAAGACUACGGGUUCGCGUCCCGUACGGAUCG and GUUCCGUUGGCGUAAUGGUAACGCGUCUCCCUCCUAAGCAGAAGACUGCGGGAUCGAGUCCCGUACGGAACG cannot be ordered by yeast fitness: at most 0.5 for the first, at most 0.5 for the second.

GUUCCGUUGCCGUAAUGGUAACGCGUCCCCCUCCUAAGGAGAACACUGCGGGUUGGAGUCCCGUACGGUACG and GUUCGCUUGGCGUAAUGGUAACGCGUCUCACUCCUAAGGAGAAGACUGCGGGUUCGAGUCCCGUACGGAACG cannot be ordered by yeast fitness: at most 0.5 for the first, at most 0.5 for the second.

Going from GUUCUGUUGGCGUAAUGGUAACGCGUCUGCCUCCUAAGGAGAAGACUGCGGGUUCCAGUCCCCUACGGAACG to GUUUCGUUGGCGUAAUGGUAACGCGUCUCCCUCCUAAGGAGAAGACUGCGGGUUCGAGUCCCGUACGAAACG, the yeast fitness rises from at most 0.5 to 0.856.

Compared with GUUCCGCUGGCGUAAUGGUAACGCGUCUCCAUCCUUAGGAGAAGACUGCGGGUUCGAGUCCCGUACGGAACG, GAGCCGUUGGCGUAAUGGUAACGCGUCUGGCUCCUAAGGAGAAGAGUGCGGGUUCGAGUCCCGUACGGAACG is higher in yeast fitness: at most 0.5 for the first, 0.612 for the second.

GUUCCGUUGGCGUAAUGGUAACGCGUCUCCCUCCUAAGGAGAAGACUGCGGGUGCGAGUCACGUACGGCACG and GUUCCGUUGGCGUAAUGGUAAUGCGUCUCCCUCAUAAGGAGAUGACUGCGGGUUCGAGUCCCGUAAGGAACG cannot be ordered by yeast fitness: at most 0.5 for the first, at most 0.5 for the second.

Compared with GUUCCGUUGGCGUAAUGGUAACGCGUCUCCCUCCUAAGGAGUAGAUUGCGGGUUCGAGUCCCGUACGGCACG, GUUCCGUAGGCGUAAUGGUGACGCGCCUCCCUCCUAAGGCGAAGACUGCGGGUUCGAGUCCCAUACGGAACG is lower in yeast fitness: 0.9 for the first, at most 0.5 for the second.

GAUCCGUUCGCGUAAGGGUAACGCGUCUCCCGCCUAAGGAGAAGACUGCGGGUUAGAGUCCCGUACGGAACG and GUUCCGUUGGCGUAAUGGUAACGCAUCUCCCUCCUAAGGAGAAGACUGCGGGUUCGACUACCGUCCGGAACG cannot be ordered by yeast fitness: at most 0.5 for the first, at most 0.5 for the second.

GUUCCGUUGGCGUAAUGGUAACGCGUCUCCCUCCUAAGGAGUGGACUGCGGCUUCGAGUGCCGUACGGAACG and GUUCCGUUGGUGUCAGGGUAACGCGUCUACCUCCUAAGGAGAAGACUGCGGGUUCGGGUCCCGUACGCAACG cannot be ordered by yeast fitness: at most 0.5 for the first, at most 0.5 for the second.

GUUCAGUUGGCGUAAUGGGAACGCGUCUACCUCCUAAGGAGAAGACUGCGGAUUCGAGUCCCGUACGGAACG and GUUCCGUUAGUGUAAUGGUAACGCGUCUACCUCCUAAGGAGAAGACUGCGGGUUUGGGUCCCGUACGGAACG cannot be ordered by yeast fitness: at most 0.5 for the first, at most 0.5 for the second.

Going from GUUCCGUUGGCGUAAUGGUAACGCGUCUCCUUCCUAAGGAGAAGACUGCGGGUUAGAGUCCCGUACGGAACG to GUUCCGUUGGCGUGAUGGUAACGCCUCUACCUCCUAAGGAGAAGACUGCGGAUUCGAGUCCCGUACGGAACG, the yeast fitness falls from 0.749 to at most 0.5.
